From PubChem BioAssay AID334 (DTP/NCI, 2004)
The list is a part of this screen's results and no random one: it is rich in T/C values a quarter to a half above the control, in often repeated tests (any T/C) and in doses without a T/C. Further doses and runs are listed elsewhere. T/C: endpoint of the treated group in % of that of the vehicle group. Some doses have a count of surviving animals in place of a T/C: the source files T/C as zero there, which appears to mark a toxic dose or a test without result, not a measured value. Some doses without a T/C left all or most animals alive at the check, yet need not have been tolerated: survival well below the control is almost never listed, so the zero probably covers shortened survival too. Survivors were counted at the toxicity check, usually on the fifth day, unless a day is given; later deaths do not show. Schedules are NCI's codes, read here as Q, the interval in days (D) or hours (H), X, the number of doses. Some doses were run more than once; the results are listed from low to high. For survival time, this PubChem deposit counts one and a half times the control or more as active, and values a quarter to a half above the control carry no call in these data; other NCI protocols may use other cut-offs. Some T/C values are followed by the survivors on the day toxicity was checked, most often the fifth; where none is given, no animal had died by that day. Marks such as (2×) count equal records among those shown.

System: CD2F1 mice, intracerebral P388 leukemia, median survival T/C%
Experiment: NCI In Vivo Anticancer Drug Screen. Data for tumor model P388 Leukemia (intracerebral) in CD2F1 (CDF1) mice
Conditions: T/C endpoint: median survival time, higher T/C = longer survival
Description: The antitumor activity of compounds was measured in mice bearing transplantable tumors. Survival or tumor size were measured and the results are expressed as the measurement made in the treated group (T) divided by the measurement made in the vehicle treated control group (C). The tumor model used in this assay is P388 Leukemia (intracerebral) in CD2F1 (CDF1) mice

[1] = dose: 40.0 mg/kg/injection, schedule: Q01DX009 (ip), vehicle: saline
[2] = dose: 64.0 mg/kg/injection, schedule: Q01DX005 (ip), vehicle: saline with Tween-80

In the case of `CC[n+]1c(-c2ccccc2)c2cc(N)ccc2c2ccc(N)cc21`, the survivor count (dose: 24.0 mg/kg/injection, schedule: Q01DX005 (ip), vehicle: saline) is reported as 10 of 10, the survivor count (dose: 48.0 mg/kg/injection, schedule: Q01DX005 (ip), vehicle: saline) is reported as 8 of 10 and 9 of 10 and the survivor count (dose: 96.0 mg/kg/injection, schedule: Q01DX005 (ip), vehicle: saline) is reported as 0 of 10.
`CC1(C)N=C(N)N=C(N)N1c1ccc(CCCCc2cccc(S(=O)(=O)F)c2)c(Cl)c1` was tested, and the survivor count [1] was 1 of 6.
`N=[N+]=CC(=O)CCC(NC(=O)C(CCC(=O)C=[N+]=N)NC(=O)CCC(N)C(=O)O)C(=O)O` (stereo not drawn) was tested, and the T/C (dose: 0.05 mg/kg/injection, schedule: Q01DX005 (ip), vehicle: Klucel (hydroxypropylcellulose) (HPC)) was 135 % of control.
In the case of `Nc1nncs1`, the T/C [2] is reported as 141 % of control, the survivor count (dose: 256.0 mg/kg/injection, schedule: Q01DX005 (ip), vehicle: saline with Tween-80) is reported as 9 of 10 and the survivor count (dose: 512.0 mg/kg/injection, schedule: Q01DX005 (ip), vehicle: saline with Tween-80) is reported as 6 of 10 and 10 of 10.
In the case of `c1ccc([C@H]2CN3CCSC3=N2)cc1`, the survivor count [1] is reported as 0 of 6 and 2 of 6, the survivor count (dose: 80.0 mg/kg/injection, schedule: Q01DX005 (ip), vehicle: saline) is reported as 0 of 10 and the survivor count (dose: 80.0 mg/kg/injection, schedule: Q01DX009 (ip), vehicle: saline) is reported as 0 of 6.
For `CN(Cc1cnc2nc(N)nc(N)c2n1)c1c(Cl)cc(C(=O)NC(CCC(=O)O)C(=O)O)cc1Cl` (stereo not drawn), the T/C (dose: 64.0 mg/kg/injection, schedule: Q01DX005 (ip), vehicle: saline) was 128 % of control.
For `O=C1C=C(N2CC2)C(=O)C=C1N1CC1`, the survivor count (dose: 2.0 mg/kg/injection, schedule: Q01DX009 (ip), vehicle: saline) was 3 of 6, 5 of 6, 6 of 6.
`O=P1(N(CCCl)CCCl)NCCCO1` (stereo not drawn) was tested, and the T/C (dose: 175.0 mg/kg/injection, schedule: Q01DX001 (ip), vehicle: saline) was 148 % of control.
`COc1cc(NCc2ccc3nc(N)nc(N)c3c2C)cc(OC)c1OC` (tested in a mixture with another compound) was tested, and the T/C (dose: 60.0 mg/kg/injection, schedule: Q01DX009 (ip), vehicle: water) was 130 % of control and the survivor count (dose: 120.0 mg/kg/injection, schedule: Q01DX009 (ip), vehicle: water) was 0 of 6.
In the case of `O=C1c2ccccc2C(=O)c2c(NCCNCCO)ccc(NCCNCCO)c21`, the survivor count (dose: 32.0 mg/kg/injection, schedule: Q01DX009 (ip), vehicle: saline) is reported as 6 of 6, the survivor count [2] is reported as 4 of 6 and the survivor count (dose: 64.0 mg/kg/injection, schedule: Q01DX009 (ip), vehicle: saline with Tween-80) is reported as 5 of 6.
For `CN(Cc1cnc2nc(N)nc(N)c2n1)c1ccc(C(=O)N[C@@H](CCC(=O)O)C(=O)O)cc1`, the survivor count (dose: 0.75 mg/kg/injection, schedule: Q01DX009 (ip), vehicle: olive oil, sesame oil, peanut oil) was 6 of 6, the T/C (dose: 0.75 mg/kg/injection, schedule: Q01DX009 (ip), vehicle: saline) was 97, 98, 101, 111, 113, 116, 120 % of control and the survivor count (dose: 1.5 mg/kg/injection, schedule: Q01DX009 (ip), vehicle: olive oil, sesame oil, peanut oil) was 6 of 6. The T/C (dose: 1.5 mg/kg/injection, schedule: Q01DX009 (ip), vehicle: saline) was 92, 93 [9 of 10 alive], 102, 105, 110, 120, 132 % of control, the T/C (dose: 2.3 mg/kg/injection, schedule: Q01DX009 (ip), vehicle: saline) was 96, 105, 108, 111, 114, 126 % of control and the survivor count (dose: 3.0 mg/kg/injection, schedule: Q01DX009 (ip), vehicle: olive oil, sesame oil, peanut oil) was 3 of 6. The survivor count (dose: 3.0 mg/kg/injection, schedule: Q01DX009 (ip), vehicle: saline) was 6 of 6, the T/C (dose: 3.4 mg/kg/injection, schedule: Q01DX009 (ip), vehicle: saline) was 102 [9 of 10 alive], 108, 109 [9 of 10 alive], 111, 120, 122 % of control and the survivor count (dose: 6.1 mg/kg/injection, schedule: Q01DX009 (ip), vehicle: olive oil, sesame oil, peanut oil) was 3 of 6. For the same compound, the survivor count (dose: 6.1 mg/kg/injection, schedule: Q01DX009 (ip), vehicle: saline) was 6 of 6, the survivor count (dose: 12.2 mg/kg/injection, schedule: Q01DX009 (ip), vehicle: olive oil, sesame oil, peanut oil) was 2 of 6 and the survivor count (dose: 12.2 mg/kg/injection, schedule: Q01DX009 (ip), vehicle: saline) was 4 of 6. For the same compound, the survivor count (dose: 73.5 mg/kg/injection, schedule: Q04DX003 (ip), vehicle: saline) was 4 of 6.
With `CN(C)c1nc(N(C)C)nc(N(C)C)n1` the survivor count (dose: 800.0 mg/kg/injection, schedule: Q01DX005 (ip), vehicle: saline with Tween-80) was 0 of 10 and the survivor count (dose: 800.0 mg/kg/injection, schedule: Q01DX005 (ip), vehicle: suspension in saline) was 0 of 10.
In the case of `CCCCCCCCCCCCCCCCCC(=O)NC(CC(=O)OCCCCCC)c1ccc(N(CCCl)CCCl)cc1` (stereo not drawn), the T/C (dose: 17.2 mg/kg/injection, schedule: Q03HX008 (ip), vehicle: saline) is reported as 126 % of control, the T/C (dose: 34.4 mg/kg/injection, schedule: Q03HX008 (ip), vehicle: saline) is reported as 126 % of control and the T/C (dose: 34.5 mg/kg/injection, schedule: Q03HX008 (ip), vehicle: saline) is reported as 142 % of control [9 of 10 alive]. For the same compound, the T/C (dose: 68.8 mg/kg/injection, schedule: Q03HX008 (ip), vehicle: saline) was 147 % of control and the T/C (dose: 138.0 mg/kg/injection, schedule: Q03HX008 (ip), vehicle: saline) was 136 % of control [9 of 10 alive].
`Cc1cnc(/C=N\NC(N)=S)c2cccc(N)c12` was tested, and the survivor count (dose: 200.0 mg/kg/injection, schedule: Q01DX009 (ip), vehicle: saline with Tween-80) was 3 of 10.
`CCCCCCC(=O)O[C@H]1CC[C@H]2[C@@H]3CCC4=CC(=O)CC[C@]4(C)[C@H]3CC[C@]12C` was tested, and the survivor count (dose: 256.0 mg/kg/injection, schedule: Q01DX009 (ip), vehicle: saline + alcohol) was 1 of 6 and 3 of 6.
`C[C@]12C=CC(=O)C=C1CC[C@@H]1[C@@H]2CC[C@]2(C)OC(=O)CC[C@@H]12` was tested, and the survivor count (dose: 256.0 mg/kg/injection, schedule: Q01DX009 (ip), vehicle: Klucel (hydroxypropylcellulose) (HPC)) was 0 of 6 and 2 of 6, the survivor count (dose: 512.0 mg/kg/injection, schedule: Q01DX009 (ip), vehicle: Klucel (hydroxypropylcellulose) (HPC)) was 0 of 6 and the survivor count (dose: 512.0 mg/kg/injection, schedule: Q01DX009 (ip), vehicle: saline with Tween-80) was 3 of 6 and 4 of 6.
In the case of `COc1cc([C@@H]2c3cc4c(cc3[C@@H](OC3OC5CO[C@@H](c6cccs6)OC5C(O)C3O)[C@H]3COC(=O)[C@H]23)OCO4)cc(OC)c1O` (stereo partly drawn), the T/C (dose: 1.0 mg/kg/injection, schedule: Q01DX009 (ip), vehicle: saline) is reported as 131 % of control and the survivor count (dose: 8.0 mg/kg/injection, schedule: Q01DX009 (ip), vehicle: saline) is reported as 4 of 6.
`Nc1ncnc2c1ncn2C1OC(COP(=O)(O)O)C(O)C1O` (stereo not drawn) was tested, and the T/C (dose: 100.0 mg/kg/injection, schedule: Q01DX009 (ip), vehicle: saline) was 95, 104, 104 [5 of 6 alive], 110, 111 % of control, the T/C (dose: 200.0 mg/kg/injection, schedule: Q01DX009 (ip), vehicle: saline) was 102, 104, 106, 107, 108 % of control and the T/C (dose: 400.0 mg/kg/injection, schedule: Q01DX009 (ip), vehicle: saline) was 97, 101, 101 [5 of 6 alive], 106, 112 % of control. The T/C (dose: 800.0 mg/kg/injection, schedule: Q01DX009 (ip), vehicle: saline) was 90, 93, 106 (2×), 109 % of control.
With `CN(Cc1cnc2nc(N[Si](C)(C)C)nc(N[Si](C)(C)C)c2n1)c1ccc(C(=O)NC(CCC(=O)O[Si](C)(C)C)C(=O)O[Si](C)(C)C)cc1` (stereo not drawn) the survivor count (dose: 2.5 mg/kg/injection, schedule: Q01DX009 (ip), vehicle: olive oil, sesame oil, peanut oil) was 6 of 6, the survivor count (dose: 5.0 mg/kg/injection, schedule: Q01DX009 (ip), vehicle: olive oil, sesame oil, peanut oil) was 6 of 6 and the survivor count (dose: 7.5 mg/kg/injection, schedule: Q04DX003 (ip), vehicle: saline) was 5 of 6. The survivor count (dose: 10.0 mg/kg/injection, schedule: Q01DX009 (ip), vehicle: olive oil, sesame oil, peanut oil) was 6 of 6, the survivor count (dose: 10.0 mg/kg/injection, schedule: Q01DX009 (ip), vehicle: saline) was 5 of 6 and the survivor count (dose: 20.0 mg/kg/injection, schedule: Q01DX009 (ip), vehicle: olive oil, sesame oil, peanut oil) was 5 of 6. The survivor count (dose: 20.0 mg/kg/injection, schedule: Q01DX009 (ip), vehicle: saline) was 3 of 6 and the survivor count (dose: 120.0 mg/kg/injection, schedule: Q04DX003 (ip), vehicle: saline) was 4 of 6.
